{"source": "PubChem BioAssay AID1347423", "about": "(Functional Genomics Laboratory (NCATS/FGL), 2020)", "note": "The whole screen tested about 52,000 sequences, of which about 210 (0.4%) were called active.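 The calls were made as follows: active = gene whose silencing raises cell survival under the drug, median off-target-corrected z-score across its silencing RNAs 2 or more; inactive = the rest.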 The list shows a part of the results."}
{"assay": "Resistance to Poly (ADP-Ribose) Polymerase inhibitor: Gene Identification via Genome-wide siRNA Screen", "details": "mouse BRCA2 R2336H ES cells, olaparib, CellTiter-Glo viability; active compounds read high", "outline": "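Genome-wide siRNA screen (3 siRNAs/gene, 20 nM) in mouse ES cells carrying hypomorphic BRCA2 R2336H; olaparib 500 nM added 48 h post-transfection, CellTiter-Glo viability 72 h later. Normalized to plate-median negative control; MAD z-scores, gene median, seed-adjusted.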"}
{"sequence": "CCUGAGCAUGAUGUGAAAUTT against Lgi4", "z-score": "inactive: -0.846"}
{"sequence": "GGAAAUUGACAGAAUGGUUTT against Gcipip", "z-score": "inactive: 0.524"}
{"sequence": "GGCCAGUGGUUGUCUUAUGTT against Cyp2g1", "z-score": "inactive: 0.106"}
{"sequence": "CGGGAUCGUACUAAGCUGATT against 4933411G11", "z-score": "inactive: -1.06"}
{"sequence": "GGAUUAAGGACAGUUUGAUTT against Mrpl16", "z-score": "inactive: -1.09"}
{"sequence": "GAUGUUGGCUCAUCUAGUATT against Olfr1340", "z-score": "inactive: -0.446"}
{"sequence": "CCACCAAUGAGUACGUCUATT against Prkcsh", "z-score": "inactive: -1.57"}
{"sequence": "CCGGAGAUGGUUGCGUAGATT against Cdkn1c", "z-score": "inactive: 1.12"}
{"sequence": "GCCCAAGACGACAUGAACUTT against F830029L24Rik", "z-score": "inactive: 1.17"}
{"sequence": "GGAUGAGGUUCUGAAAAUCTT against Rps2", "z-score": "inactive: -3.5"}
{"sequence": "GCCAUAUUGCUGUUUGCAATT against 4930428O21Rik", "z-score": "inactive: -0.791"}
{"sequence": "GGCUAUGAUGAUUAUAAUGTT against Hnrph1", "z-score": "inactive: 0.923"}
{"sequence": "GGCCUUUGUUUCUAAGUACTT against Plag1", "z-score": "inactive: -1.77"}
{"sequence": "GGAAGACCGUACUAUGUUUTT against Gtl2", "z-score": "inactive: -2.38"}
{"sequence": "GGAAGAAAACAAGUAAAACTT against Ccr4", "z-score": "inactive: 0.171"}
{"sequence": "GGACUCUGAUCUGGAGUAGTT against D630035O19Rik", "z-score": "inactive: 0.309"}
{"sequence": "GGUGAAAUACCCGUCUUAUTT against Cyp2f2", "z-score": "inactive: -1.82"}
{"sequence": "GCGUGGUAUGGUAAAAGUUTT against Arx", "z-score": "inactive: -0.967"}
{"sequence": "GGACCUUAUUGAUUCUCUATT against Tex21", "z-score": "inactive: -0.626"}
{"sequence": "GGACGGGAAAUUUUUGAUCTT against Rnf149", "z-score": "inactive: -0.299"}
{"sequence": "GGAGAAGAAGAACUACUGCTT against A930041G11Rik", "z-score": "inactive: 0.691"}
{"sequence": "GGUGAUUGACUUGCCAGGATT against Fn3k", "z-score": "inactive: -0.589"}
{"sequence": "CCGAUUCAGGUUUCUGUCUTT against Cdc25a", "z-score": "inactive: 0.693"}
{"sequence": "GGAUUUUGUGAGUGUAAGATT against Ntng1", "z-score": "inactive: -0.353"}
{"sequence": "GCGAGGAAUAACCCAGAUCTT against Olfr503", "z-score": "inactive: -1.76"}
{"sequence": "GCUGACUCCGUGUUUUUAATT against Arhgef18", "z-score": "inactive: -0.518"}
{"sequence": "GGUGAGCGACAAUAUGAGUTT against MGC58341", "z-score": "inactive: -0.928"}
{"sequence": "GGGAGUUUGACAUUUUCGATT against Lect2", "z-score": "inactive: 0.0814"}
{"sequence": "GGCUCCACCAAAGCCUGUUTT against 2310066N05Rik", "z-score": "inactive: -2.31"}
{"sequence": "GGUGGUCAGGAAAUGAGUCTT against Lrch4", "z-score": "inactive: -0.0125"}
{"sequence": "GCAUUGUGUCACAAAAUUUTT against Pde5a", "z-score": "inactive: 0.645"}
{"sequence": "GGACCAUGUGACAAAGCCUTT against 6330503C03Rik", "z-score": "inactive: 0.788"}
{"sequence": "CCUGCCUGGACUAUCAAGATT against A530095I07Rik", "z-score": "inactive: 1.06"}
{"sequence": "GGCUGUCGGUUCAUUAACCTT against Atad1", "z-score": "inactive: 1.86"}
{"sequence": "GCCUCUGAACUGAAAAAAATT against BC054438", "z-score": "inactive: -0.172"}
{"sequence": "CCUAUGUUUGGUGAUUAUGTT against Alg6", "z-score": "inactive: -0.95"}
{"sequence": "GCUAGAUCUCACCAAACUUTT against Ddx21", "z-score": "inactive: 0.391"}
{"sequence": "CCUAUCGAGUGAAAGUAAATT against Abcg2", "z-score": "inactive: -0.876"}
{"sequence": "GGAACUCAAGUUGUCUAUGTT against Plekhb2", "z-score": "inactive: -2.39"}
{"sequence": "CCAUUGACUCAGUUAAAACTT against Semcap2", "z-score": "inactive: 0.306"}
{"sequence": "GGUGAAAUUCUGAAUGAAATT against Pet112l", "z-score": "inactive: 1.27"}
{"sequence": "GCCAUGUUCAAAUUGACGGTT against Pik4ca", "z-score": "inactive: 0.256"}
{"sequence": "CCUCUCAAGAAAUCGUGCATT against Trim47", "z-score": "inactive: 1.24"}
{"sequence": "GCAAAAUUGGUUCCAAUGGTT against Rad51", "z-score": "inactive: -2.26"}
{"sequence": "CCAAUACUAUACCAACUGCTT against Cacna1g", "z-score": "inactive: -0.207"}
{"sequence": "GGUCUAAGUCUGAAUGGCCTT against Agrp", "z-score": "inactive: 0.884"}
{"sequence": "GCUUGUUAGUUUAAUUAGGTT against Elovl5", "z-score": "inactive: 0.18"}
{"sequence": "GGAAAAGAAAGAUGUGACUTT against 1810044A24Rik", "z-score": "inactive: -0.637"}
{"sequence": "GGAGAUACCCAAUCUCAGATT against Eapa2", "z-score": "inactive: 0.245"}
{"sequence": "GAAAGAAAAUCGUGUCAGATT against Olfr1199", "z-score": "inactive: 0.5"}
{"sequence": "CCGAGCUUAUCGACAGGUATT against Stk24", "z-score": "inactive: 1.96"}
{"sequence": "GCAAUAAUGAGACCUGCACTT against Edem1", "z-score": "inactive: -1.37"}
{"sequence": "GGUUUGAGCCACCUACUAUTT against Bcdo2", "z-score": "inactive: 0.661"}
{"sequence": "CGUGACCUGAAAGUAUUUGTT against Gpc3", "z-score": "inactive: 0.589"}
{"sequence": "CGAGAAGAUUACCAUAAAUTT against Homez", "z-score": "inactive: -0.437"}
{"sequence": "GGAGUUUUAUGCUGAGCAGTT against 2510005D08Rik", "z-score": "inactive: 0.767"}
{"sequence": "GCUCUCUGCACCAGAGUAUTT against BC048082", "z-score": "inactive: -2.74"}
{"sequence": "GGAUGAGCAAGAAAUCCCUTT against 3110023B02Rik", "z-score": "inactive: 0.444"}
{"sequence": "GGCAUCCAUCAACAACAGGTT against Ahsa1", "z-score": "inactive: 0.188"}
{"sequence": "GGAAUACUAUGACAGGAAGTT against Tnfrsf1b", "z-score": "inactive: -2.79"}
{"sequence": "GGUUUUGCUAGUAAGAAAGTT against Trim3", "z-score": "inactive: -0.122"}
{"sequence": "GCUGUGGUUGUCCAACAAGTT against Il17b", "z-score": "inactive: 1.58"}
{"sequence": "GGCUCAAAAGUCUUGGGACTT against Hells", "z-score": "inactive: -0.169"}
{"sequence": "GGACUUUAAGCUCGACUUCTT against A030007L17Rik", "z-score": "inactive: -0.067"}
{"sequence": "GGGUAAGAAGAACAUGUAGTT against Tgfbi", "z-score": "inactive: 0.859"}
{"sequence": "GGAACUAAUUUUCACAGAGTT against Lmod2", "z-score": "inactive: 0.88"}
{"sequence": "CCACUGAAGACGUGAAGCUTT against 2610040C18Rik", "z-score": "inactive: -1.9"}
{"sequence": "GGUGAUAUUCUUUAAAGACTT against Mmp1b", "z-score": "inactive: 0.57"}
{"sequence": "GGUGGUGAAGAAUUUUCUUTT against Serpini1", "z-score": "inactive: 1.19"}
{"sequence": "GCAAUGGUGGUUCUAAUAUTT against Cmya5", "z-score": "inactive: -1.85"}
{"sequence": "GGGAACAUUAUGUGCUGGCTT against Pou2af1", "z-score": "inactive: 0.934"}
{"sequence": "GAACAUGGCUUGCUUCAGATT against 1500011K16Rik", "z-score": "inactive: 0.739"}
{"sequence": "GCUGCACAACCUUUAUCAATT against Spata4", "z-score": "inactive: 1.21"}
{"sequence": "GCUGCUAAGUGAAUCCAACTT against 2410127E16Rik", "z-score": "inactive: -0.0876"}
{"sequence": "GCUUUCAAGGGAUGAUUCATT against Zc3hav1", "z-score": "inactive: -0.835"}
{"sequence": "GGAGAAAAUAAGCUGGUAGTT against Slc35f1", "z-score": "inactive: 0.229"}
{"sequence": "GGUCAAGGAGAUCACCUUCTT against Comp", "z-score": "inactive: -0.501"}
{"sequence": "GCCAUGUUUAAGCAAUUGUTT against Vsx1", "z-score": "inactive: 0.537"}
{"sequence": "GCACUGAGCUUGACAAAGATT against Upp2", "z-score": "inactive: -0.404"}
{"sequence": "GCCAUAGCAUAGCUCCCAGTT against 5330408N05Rik", "z-score": "inactive: 1.74"}
{"sequence": "GGAAGACAUACUGUUGAAATT against 1110005A03Rik", "z-score": "inactive: -0.533"}
{"sequence": "GGAUAGCUCUAUUAUCUCUTT against Serpinb3c", "z-score": "inactive: -1.63"}
{"sequence": "GGGAGGACAGUCAUUGGUUTT against Phldb1", "z-score": "inactive: -0.723"}
{"sequence": "GGGAAACACAAUUUACCUUTT against Elf1", "z-score": "inactive: 0.951"}
{"sequence": "GCUCCAGGGAGUUAACUGUTT against Osr2", "z-score": "inactive: -0.95"}
{"sequence": "GGUUUUUAAGGGAAGGCCCTT against 2610205E22Rik", "z-score": "inactive: 0.312"}
{"sequence": "GGACGUGAGCUCUCUCUUCTT against Ap2b1", "z-score": "inactive: -0.227"}
{"sequence": "GGGAAUUCGUCUCUAGAUATT against Cabyr", "z-score": "inactive: -0.149"}
{"sequence": "GGUGCUAGGAAUGAACGGGTT against Ripply1", "z-score": "inactive: 0.323"}
{"sequence": "GCAUGUGUAUGAUAAGAUCTT against 2700023J09Rik", "z-score": "inactive: 0.422"}
{"sequence": "GGGAAAUGGAGAGAUUUUUTT against Tnpo1", "z-score": "inactive: 1.61"}
{"sequence": "CCCAGAGCUCCAAUUGCCUTT against Olfr938", "z-score": "inactive: -1"}
{"sequence": "CCAUUUUUGAGUAUGUUGGTT against C430003P19Rik", "z-score": "inactive: 0.101"}
{"sequence": "GCCUCAUCCCUAUAGUCCUTT against 1700026L06Rik", "z-score": "inactive: 0.895"}
{"sequence": "GGAAAAGAAUUUCCUCCCUTT against Aspa", "z-score": "inactive: 2.13"}
{"sequence": "GCAGAUACUGAGAUGCUAUTT against Dkk4", "z-score": "inactive: -0.264"}
{"sequence": "GGAAAUGGGUCUUGAAGUUTT against C330018J07Rik", "z-score": "inactive: 1.57"}
{"sequence": "CCUGACAGUAGUUACAGUATT against Olfr1080", "z-score": "inactive: -0.363"}
{"sequence": "GGGAGACAUUCAUUAUCAGTT against Viaat", "z-score": "inactive: 0.562"}
{"sequence": "GGGAGGAACCUUUGAGAAUTT against Spats2", "z-score": "inactive: 0.341"}
{"sequence": "GGUAGAGAACCAGAGGCAUTT against Ninj2", "z-score": "inactive: -1.57"}
{"sequence": "GGCACUCAAAAACUGUGAGTT against Mrps7", "z-score": "inactive: 0.0954"}
{"sequence": "CCAAGAACUAUAUUUCUUCTT against Tars", "z-score": "inactive: -0.618"}
{"sequence": "GGAAGUGAAUGGACAGCCATT against Mpp2", "z-score": "inactive: -1.88"}
